Where a name gives a salt, the structure may show the parent alone. The list shows a part of the results. Hit calls seldom repeat between salt and free forms of one compound.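 In K562 cells expressing nanoluciferase-fused kinases, luminescence was recorded at 4 h intervals between 2 and 18 h, normalized as percent of control with DMSO at 100% and a positive control at 0%. A significant (2 sigma) signal drop marks a time point as decreased. The authors' rule for a hit is not shown and takes in more than the number of time points.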
How the values were obtained:
Assay in all cases: number of time points (of 5) at which kinase-Nluc abundance scored as decreased, DMSO-normalised (count); higher = more persistent destabilization
Conditions in all cases: K562; 2-18 h
PRKCA = PRKCA (UniProt P17252)
PTK2 = PTK2 (UniProt Q05397)
PTK2B = PTK2B (UniProt Q14289)
RAF1 = RAF1 (UniProt P04049)
[1] = target: RAF1_S257L (clone: RAF1_mut) (UniProt P04049)
RET = RET (UniProt P07949)
[2] = target: RET_M918T (clone: RET_mut) (UniProt P07949)
RIOK1 = RIOK1 (UniProt Q9BRS2)
RIPK1 = RIPK1 (UniProt Q13546)
RIPK2 = RIPK2 (UniProt O43353)

The chains behind the UniProt entries cited, without tags or fusion partners. Where a name states a change or a piece, a line headed by the entry shows the natural chain unless it says otherwise.
UniProt Q05397, whole entry, looked up: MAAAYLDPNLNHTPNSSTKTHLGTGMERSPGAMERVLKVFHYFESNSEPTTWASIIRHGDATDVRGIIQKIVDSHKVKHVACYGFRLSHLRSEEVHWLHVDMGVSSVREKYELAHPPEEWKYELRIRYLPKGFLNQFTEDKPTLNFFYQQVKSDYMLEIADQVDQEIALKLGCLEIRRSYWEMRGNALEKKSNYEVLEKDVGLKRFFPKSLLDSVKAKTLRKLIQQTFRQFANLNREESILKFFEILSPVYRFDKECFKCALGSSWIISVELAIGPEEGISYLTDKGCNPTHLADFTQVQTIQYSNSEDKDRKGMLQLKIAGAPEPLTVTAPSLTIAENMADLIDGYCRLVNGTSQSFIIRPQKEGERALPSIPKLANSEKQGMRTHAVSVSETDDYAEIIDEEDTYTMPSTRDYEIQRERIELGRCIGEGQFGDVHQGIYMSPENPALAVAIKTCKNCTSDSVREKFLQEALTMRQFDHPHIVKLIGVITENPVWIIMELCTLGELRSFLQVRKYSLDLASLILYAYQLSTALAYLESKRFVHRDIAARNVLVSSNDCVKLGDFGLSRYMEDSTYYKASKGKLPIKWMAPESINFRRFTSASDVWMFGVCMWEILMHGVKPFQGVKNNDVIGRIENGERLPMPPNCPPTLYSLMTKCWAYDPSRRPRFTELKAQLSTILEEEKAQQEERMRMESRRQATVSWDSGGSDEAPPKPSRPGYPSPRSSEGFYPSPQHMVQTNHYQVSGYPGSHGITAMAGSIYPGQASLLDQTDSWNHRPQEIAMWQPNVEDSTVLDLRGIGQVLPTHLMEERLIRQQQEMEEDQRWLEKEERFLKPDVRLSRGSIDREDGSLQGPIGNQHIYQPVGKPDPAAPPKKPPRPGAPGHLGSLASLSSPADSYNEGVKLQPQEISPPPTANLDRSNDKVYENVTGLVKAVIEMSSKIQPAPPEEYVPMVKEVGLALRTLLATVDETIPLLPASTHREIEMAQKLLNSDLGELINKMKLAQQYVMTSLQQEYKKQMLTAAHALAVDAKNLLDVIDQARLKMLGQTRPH
UniProt Q14289, whole entry, looked up: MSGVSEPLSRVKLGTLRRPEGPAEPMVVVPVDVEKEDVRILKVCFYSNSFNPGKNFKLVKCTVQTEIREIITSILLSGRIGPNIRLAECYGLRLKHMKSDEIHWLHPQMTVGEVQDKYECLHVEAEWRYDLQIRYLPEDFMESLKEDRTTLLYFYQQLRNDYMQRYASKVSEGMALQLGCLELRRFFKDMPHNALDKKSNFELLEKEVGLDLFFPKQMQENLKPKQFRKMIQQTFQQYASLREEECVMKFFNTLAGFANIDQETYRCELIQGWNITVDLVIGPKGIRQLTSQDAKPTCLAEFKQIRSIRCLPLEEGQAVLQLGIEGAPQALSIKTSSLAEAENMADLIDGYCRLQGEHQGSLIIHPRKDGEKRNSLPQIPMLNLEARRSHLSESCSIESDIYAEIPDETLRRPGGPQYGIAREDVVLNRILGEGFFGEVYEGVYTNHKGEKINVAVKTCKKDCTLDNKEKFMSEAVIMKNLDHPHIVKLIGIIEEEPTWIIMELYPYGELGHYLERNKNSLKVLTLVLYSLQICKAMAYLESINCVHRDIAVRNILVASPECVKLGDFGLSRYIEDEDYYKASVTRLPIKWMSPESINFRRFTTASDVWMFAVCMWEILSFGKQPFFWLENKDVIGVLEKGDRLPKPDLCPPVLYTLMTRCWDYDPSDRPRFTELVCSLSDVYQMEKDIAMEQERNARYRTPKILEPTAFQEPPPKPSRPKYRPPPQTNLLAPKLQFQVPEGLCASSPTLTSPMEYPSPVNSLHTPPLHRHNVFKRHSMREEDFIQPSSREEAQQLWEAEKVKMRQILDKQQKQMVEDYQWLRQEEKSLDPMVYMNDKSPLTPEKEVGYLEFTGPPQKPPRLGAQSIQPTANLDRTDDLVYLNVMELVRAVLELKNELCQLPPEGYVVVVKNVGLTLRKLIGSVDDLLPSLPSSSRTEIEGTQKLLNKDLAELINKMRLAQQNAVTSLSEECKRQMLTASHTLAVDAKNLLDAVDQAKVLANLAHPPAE
UniProt P07949, whole entry, looked up: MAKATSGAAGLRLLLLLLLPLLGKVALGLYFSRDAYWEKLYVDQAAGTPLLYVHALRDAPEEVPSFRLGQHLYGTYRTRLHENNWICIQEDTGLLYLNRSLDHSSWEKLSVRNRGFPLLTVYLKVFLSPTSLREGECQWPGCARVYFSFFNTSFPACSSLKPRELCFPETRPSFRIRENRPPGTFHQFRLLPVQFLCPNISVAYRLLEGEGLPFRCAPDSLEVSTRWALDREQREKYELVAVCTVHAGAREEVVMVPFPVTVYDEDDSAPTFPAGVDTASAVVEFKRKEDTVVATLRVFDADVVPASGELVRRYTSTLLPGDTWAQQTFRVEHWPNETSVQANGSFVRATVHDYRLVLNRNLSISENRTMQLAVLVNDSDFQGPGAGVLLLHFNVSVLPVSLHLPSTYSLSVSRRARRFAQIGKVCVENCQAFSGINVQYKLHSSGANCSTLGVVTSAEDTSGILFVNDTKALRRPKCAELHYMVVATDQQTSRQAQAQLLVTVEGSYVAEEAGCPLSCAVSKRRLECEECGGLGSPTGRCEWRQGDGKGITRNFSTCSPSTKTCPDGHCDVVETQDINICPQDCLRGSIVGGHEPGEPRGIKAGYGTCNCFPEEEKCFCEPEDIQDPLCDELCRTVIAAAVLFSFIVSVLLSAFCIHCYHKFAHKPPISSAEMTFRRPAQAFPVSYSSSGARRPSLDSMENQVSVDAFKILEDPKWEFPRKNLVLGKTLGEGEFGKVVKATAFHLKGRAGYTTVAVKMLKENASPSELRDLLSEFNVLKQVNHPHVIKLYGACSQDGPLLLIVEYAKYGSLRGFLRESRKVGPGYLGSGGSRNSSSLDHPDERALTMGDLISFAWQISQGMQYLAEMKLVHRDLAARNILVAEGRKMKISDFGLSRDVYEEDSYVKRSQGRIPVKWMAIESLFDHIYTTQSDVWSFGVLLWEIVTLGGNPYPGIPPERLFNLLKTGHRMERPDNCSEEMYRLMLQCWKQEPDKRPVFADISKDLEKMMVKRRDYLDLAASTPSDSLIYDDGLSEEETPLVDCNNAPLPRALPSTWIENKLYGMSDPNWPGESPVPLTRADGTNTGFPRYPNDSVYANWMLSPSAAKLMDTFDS
UniProt P07949, whole entry M918T, looked up: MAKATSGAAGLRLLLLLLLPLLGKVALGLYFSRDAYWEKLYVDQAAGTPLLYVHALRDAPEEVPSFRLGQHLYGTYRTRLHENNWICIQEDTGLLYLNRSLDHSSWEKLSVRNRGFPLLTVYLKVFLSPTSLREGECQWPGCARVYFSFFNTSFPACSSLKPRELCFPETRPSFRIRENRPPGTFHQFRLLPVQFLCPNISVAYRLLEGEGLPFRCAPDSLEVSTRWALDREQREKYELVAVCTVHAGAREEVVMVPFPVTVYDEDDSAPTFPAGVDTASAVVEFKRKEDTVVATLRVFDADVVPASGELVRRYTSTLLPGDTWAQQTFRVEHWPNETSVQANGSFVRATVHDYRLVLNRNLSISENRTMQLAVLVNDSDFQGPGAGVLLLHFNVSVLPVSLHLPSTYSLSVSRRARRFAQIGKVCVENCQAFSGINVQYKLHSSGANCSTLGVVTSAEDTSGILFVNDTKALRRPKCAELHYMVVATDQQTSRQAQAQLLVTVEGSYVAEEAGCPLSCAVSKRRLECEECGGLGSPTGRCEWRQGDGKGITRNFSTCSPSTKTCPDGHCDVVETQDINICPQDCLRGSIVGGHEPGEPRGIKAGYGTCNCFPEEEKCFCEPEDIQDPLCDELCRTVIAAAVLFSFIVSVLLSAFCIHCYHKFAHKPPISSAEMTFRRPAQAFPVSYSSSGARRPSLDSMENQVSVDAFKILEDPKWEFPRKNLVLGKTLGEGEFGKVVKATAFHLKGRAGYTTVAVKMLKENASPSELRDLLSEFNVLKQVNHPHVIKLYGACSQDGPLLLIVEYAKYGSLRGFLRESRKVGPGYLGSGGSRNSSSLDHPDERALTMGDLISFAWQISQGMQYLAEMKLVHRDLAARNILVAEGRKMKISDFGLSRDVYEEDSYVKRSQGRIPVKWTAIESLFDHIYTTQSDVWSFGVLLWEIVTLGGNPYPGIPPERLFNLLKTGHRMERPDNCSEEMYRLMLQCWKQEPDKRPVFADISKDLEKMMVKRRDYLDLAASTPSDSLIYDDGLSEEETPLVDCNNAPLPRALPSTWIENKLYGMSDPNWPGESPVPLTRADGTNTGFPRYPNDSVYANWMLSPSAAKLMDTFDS
UniProt Q9BRS2: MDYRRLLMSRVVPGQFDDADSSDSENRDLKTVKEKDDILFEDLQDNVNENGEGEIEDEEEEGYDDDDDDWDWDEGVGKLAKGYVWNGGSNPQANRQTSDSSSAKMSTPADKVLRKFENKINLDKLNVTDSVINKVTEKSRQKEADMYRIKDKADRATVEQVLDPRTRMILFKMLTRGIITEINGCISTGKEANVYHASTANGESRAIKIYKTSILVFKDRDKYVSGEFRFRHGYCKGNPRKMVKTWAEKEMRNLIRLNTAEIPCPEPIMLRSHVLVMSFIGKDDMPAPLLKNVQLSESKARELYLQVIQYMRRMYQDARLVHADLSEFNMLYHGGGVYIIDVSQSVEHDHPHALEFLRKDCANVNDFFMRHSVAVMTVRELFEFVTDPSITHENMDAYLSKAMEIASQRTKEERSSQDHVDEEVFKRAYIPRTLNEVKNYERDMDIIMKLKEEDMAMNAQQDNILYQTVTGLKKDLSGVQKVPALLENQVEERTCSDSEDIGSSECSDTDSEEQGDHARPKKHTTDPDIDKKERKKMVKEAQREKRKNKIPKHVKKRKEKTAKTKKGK
UniProt Q13546: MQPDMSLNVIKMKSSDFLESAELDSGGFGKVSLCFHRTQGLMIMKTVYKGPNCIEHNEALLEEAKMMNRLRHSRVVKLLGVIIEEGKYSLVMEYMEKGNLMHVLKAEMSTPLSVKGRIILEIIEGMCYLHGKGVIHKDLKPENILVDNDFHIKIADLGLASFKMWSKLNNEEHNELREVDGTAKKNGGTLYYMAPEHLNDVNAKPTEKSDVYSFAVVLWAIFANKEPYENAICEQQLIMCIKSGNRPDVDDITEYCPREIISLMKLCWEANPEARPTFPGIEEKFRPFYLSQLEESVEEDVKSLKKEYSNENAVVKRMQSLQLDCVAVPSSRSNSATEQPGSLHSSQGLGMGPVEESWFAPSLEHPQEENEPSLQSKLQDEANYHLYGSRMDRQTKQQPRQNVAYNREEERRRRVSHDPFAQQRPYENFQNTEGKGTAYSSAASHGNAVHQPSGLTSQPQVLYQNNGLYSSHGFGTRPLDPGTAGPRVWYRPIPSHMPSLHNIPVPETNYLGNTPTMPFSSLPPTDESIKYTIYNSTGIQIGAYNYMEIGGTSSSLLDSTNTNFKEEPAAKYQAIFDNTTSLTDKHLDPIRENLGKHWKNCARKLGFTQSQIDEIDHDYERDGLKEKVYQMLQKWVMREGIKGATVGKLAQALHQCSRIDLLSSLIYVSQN

Measured: number of time points

O=C(Nc1ccc(CN2CCOCC2)cc1)c1ccc(-c2cccc(Cl)c2)o1 (10 µM)
0: all assays above

CC(C)(C)c1nc(-c2cccc(NS(=O)(=O)c3c(F)cccc3F)c2F)c(-c2ccnc(N)n2)s1 [Dabrafenib] (2.5 µM)
1: [1]
0: all other assays above

CC#CC(=O)N1CC[C@@H](n2c(=O)n(-c3ccc(Oc4ccccc4)cc3)c3c(N)ncnc32)C1 [Tirabrutinib] (10 µM)
0: all assays above

COc1cc(Nc2ncc(F)c(Nc3ccc4c(n3)NC(=O)C(C)(C)O4)n2)cc(OC)c1OC [R406 (free base)] (10 µM)
not listed: PTK2B | RET | [2]
0: all other assays above

Cn1nccc1Nc1nccc(-c2ccn([C@H](CO)c3ccc(Cl)c(F)c3)c(=O)c2)n1 [Ravoxertinib hydrochloride] (10 µM)
0: all assays above

Oc1ccc(Nc2nc(-c3ccc(Cl)cc3)cs2)cc1 (10 µM)
0: all assays above

NC(=O)c1nnc(N[C@@H]2CCCC[C@@H]2N)nc1Nc1cccc2cc[nH]c12 (10 µM)
3: [1]
1: PTK2
0: all other assays above

Nc1nc2ccc(Cl)cc2c2nc(-c3ccco3)nn12 (10 µM)
0: all assays above

CN(CC(=O)N(Cc1ccc(C2CCCCC2)cc1)c1ccc(C(=O)NO)cc1)S(=O)(=O)c1c(F)c(F)c(F)c(F)c1F (2.5 µM)
0: all assays above

Cc1ccc(CNc2ncnc3ccc(-c4ccc(CO)o4)cc23)o1 (10 µM)
0: all assays above

C[C@@H]1CCN(C(=O)CC#N)C[C@@H]1N(C)c1ncnc2[nH]ccc12 [Tofacitinib] (10 µM)
not listed: PTK2B
0: all other assays above

Cc1ccc2nc(NCCN)c3ncc(C)n3c2c1 (2.5 µM)
not listed: RIPK1
0: all other assays above

Cc1cccc(-c2[nH]ncc2-c2ccc(F)c(-c3cnn(CCO)c3)c2)n1 (10 µM)
0: all assays above

NC(=O)c1ccc(-c2nc(-c3ccc4c(c3)OCCO4)c(-c3ccccn3)[nH]2)cc1 (10 µM)
0: all assays above

COc1ccc2c(OCc3nnc4ccc(-c5ccccc5)nn34)ccnc2c1 (2 µM)
0: all assays above

Cc1[nH]c(/C=C2\C(=O)Nc3ccccc32)c(C)c1CCC(=O)O [Orantinib] (10 µM)
0: all assays above

Cn1cnc2c(F)c(Nc3ccc(Br)cc3Cl)c(C(=O)NOCCO)cc21 [Selumetinib] (10 µM)
0: all assays above

COc1cc(OC2CCN(C)CC2)ccc1Nc1ncc2c(n1)n(C1CCCC1)c(=O)n2C (10 µM)
0: all assays above

COc1cc(Nc2ncc(F)c(Nc3ccc4c(n3)NC(=O)C(C)(C)O4)n2)cc(OC)c1OC (10 µM)
not listed: PTK2B | RET | [2]
0: all other assays above

C[C@@H]1COCCN1c1cc(C2([S@@](C)(=N)=O)CC2)nc(-c2ccnc3[nH]ccc23)n1 [(S)-Ceralasertib] (10 µM)
0: all assays above

C=CC(=O)Nc1cc(Nc2ncc(Cl)c(-c3c[nH]c4ccccc34)n2)c(OC)cc1N(C)CCN(C)C [Mutant EGFR inhibitor] (2.5 µM)
1: RIPK1
3: [1]
2: PTK2 | RAF1 | RIOK1
0: all other assays above

C[C@@H](c1ccc(-c2ccccc2)c(F)c1)c1cc(NC(=N)N2CCOCC2)on1 [Rimacalib] (10 µM)
0: all assays above

C=CC(=O)Nc1ccc(CN2C(=O)N(c3cc(OC)cc(OC)c3)Cc3cnc(Nc4ccc(N5CCN(C)CC5)cc4)nc32)cc1 (2.5 µM)
0: all assays above

N#CCC1CCN(c2nc(Nc3ccc(N4CCC(O)CC4)cc3)c3c(=O)[nH]ncc3n2)CC1 [Gusacitinib] (10 µM)
2: PTK2 | RAF1
0: all other assays above

Cc1ccc2cc(-c3c(C)ccc(C(=O)c4c(-c5ccccc5)n(C)n(-c5ccccc5)c4=O)c3N)ccc2n1 (2.5 µM)
0: all assays above

Nc1ncnc2c1c(-c1cccc(OCc3ccccc3)c1)cn2C1CC(CN2CCC2)C1 (stereo unspecified) (2.5 µM)
0: all assays above

C[C@@H]1CCN(C(=O)CC#N)C[C@@H]1N(C)c1ncnc2[nH]ccc12 [Tofacitinib (citrate)] (10 µM)
not listed: PTK2B
0: all other assays above

Cn1cnc2c(F)c(Nc3ccc(Br)cc3Cl)c(C(=O)NOCCO)cc21 [Selumetinib (sulfate)] (10 µM)
0: all assays above

O=C1Nc2ccc(C(=O)c3ccco3)cc2C1=Cc1cc(Cl)c(O)c(Cl)c1 (2.5 µM)
5: PRKCA
0: all other assays above

Cn1cc(-c2ccc3nnc(Sc4ccc5ncccc5c4)n3n2)cn1 (10 µM)
0: all assays above

CCc1cc2c(cc1N1CCC(N3CCOCC3)CC1)C(C)(C)c1[nH]c3cc(C#N)ccc3c1C2=O [Alectinib] (10 µM)
0: all assays above

COc1cc(Nc2ncc(F)c(Nc3ccc4c(n3)N(COP(=O)(O)O)C(=O)C(C)(C)O4)n2)cc(OC)c1OC [Fostamatinib Disodium] (10 µM)
0: all assays above

FC(F)c1nc2ccccc2n1-c1nc(N2CCOCC2)nc(N2CCOCC2)n1 (2 µM)
0: all assays above
